Our source for the binding values is patent US20160075780A1 (NB HEALTH LABORATORY, published 2016).

The chains behind the UniProt entries cited, without tags or fusion partners. Where a name states a change or a piece, a line headed by the entry shows the natural chain unless it says otherwise.
UniProt P35408: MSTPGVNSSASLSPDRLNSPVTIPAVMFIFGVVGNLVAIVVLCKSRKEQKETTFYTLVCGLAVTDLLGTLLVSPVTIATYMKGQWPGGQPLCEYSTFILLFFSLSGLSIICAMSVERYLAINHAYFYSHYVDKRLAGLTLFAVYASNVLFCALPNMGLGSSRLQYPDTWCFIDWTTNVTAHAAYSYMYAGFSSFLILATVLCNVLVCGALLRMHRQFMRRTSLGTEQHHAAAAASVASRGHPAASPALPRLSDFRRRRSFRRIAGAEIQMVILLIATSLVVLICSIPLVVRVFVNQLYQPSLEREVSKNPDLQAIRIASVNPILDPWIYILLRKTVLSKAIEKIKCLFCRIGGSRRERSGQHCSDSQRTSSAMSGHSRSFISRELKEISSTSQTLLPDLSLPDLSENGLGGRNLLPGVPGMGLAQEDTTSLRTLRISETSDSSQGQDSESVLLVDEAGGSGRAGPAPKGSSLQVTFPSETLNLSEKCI

Results are given in words; binding and its absence hold for the method and conditions named. Some binding calls cover weakened binding; strength is not graded here.

In this assay the target is human EP4 with V5 and 6xHIS tags at the C-terminus, on the CHO cell line stably expressing human EP4 (human) (UniProt P35408). Kind of assay: flow cytometry, 293FT culture supernatant on the CHO cell line stably expressing human EP4, PE-labeled anti-human IgG. Background: A flow cytometer gives signals particle by particle.

B1: human chimeric antibody NBG016-mAb14 (antibody, V domains shown)
VH: EIQLQQPGPELVKPGASVKVSCKASGFPFSTYNIYWVIQSHGKRLEWIGYIDPYNGGTSYNQKFRGKATLTVDKSSSTAYMHLNRLTSEDSAVYYCARRWYTYDGDWFAYWGQGTLVTVSA
VL: DIKMTQSPSSMYVSLGERVTITCKASQDINRYLSWFQQKPGKSPKTLIYRANRLLDGVPSRFSGSGSGLDYSLTISSLEYEDMGNYYCLQYDEFPFTFGSGTKLEIKR
Turning to B1, the binding result is recorded as “binds”.
